The values below come from the supplement of paper PMC4807443.

Counter-ions that a name gives are not always drawn. Some of the results follow. The numbers are fractions of the control, whatever unit the source prints. Most entries show no effect beyond the scatter of the controls.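 MIN6, a mouse insulinoma beta-cell line, stably carries a lentiviral reporter where Pdx1 and Ins1 promoters each drive a nuclear fluorescent protein; Hoechst staining and automated imaging counted cells. Drugs were candidate hits if Ins1 promoter readout exceeded two median absolute deviations from DMSO controls while Pdx1 activity stayed near normal.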

The assay has as its system MIN6. Briefly: % Pdx1+ Ins1+ (double-positive, mature) cells relative to DMSO control (fold of DMSO control); higher = more mature Ins1 promoter-active cells. The following applies: 8.5 µM; 48 h; glucose 5 mM.
Turning to `CCC(=O)O[C@]1(C(=O)SCF)[C@H](C)C[C@H]2[C@@H]3C[C@H](F)C4=CC(=O)C=C[C@]4(C)[C@@]3(F)[C@@H](O)C[C@@]21C` [Fluticasone propionate], the “% Pdx1+ Ins1+” value was found to be 0.955. For `C[N+]1(C)CCCC1C(=O)O` (configuration not stated) [Stachydrine hydrochloride], the “% Pdx1+ Ins1+” value came to 0.999.

With `Nc1ccc(/N=N/c2ccccc2)c(N)n1` [Phenazopyridine hydrochloride], the “% Pdx1+ Ins1+” value was 0.758. On to `CC1=CC(=O)C2=C(C)CC[C@@H]3[C@H](OC(=O)[C@H]3C)[C@@H]12` [Leucomisine], for which the “% Pdx1+ Ins1+” value worked out at 0.98. Regarding `CN(C)CCOC(=O)C(c1ccccc1)C1(O)CCCC1` (configuration not stated) [Cyclopentolate hydrochloride], the “% Pdx1+ Ins1+” value stood at 0.973.

`OCCN1CCN(CC/C=C2/c3ccccc3Sc3ccc(Cl)cc32)CC1` [Zuclopenthixol hydrochloride]: the “% Pdx1+ Ins1+” value is 0.876. The value for `CCN(CC)C(C)CN1c2ccccc2Sc2ccccc21` (configuration not stated) [Ethopropazine hydrochloride] was 1.08; that for `CCCNC(=O)NS(=O)(=O)c1ccc(Cl)cc1` [Chlorpropamide] was 0.975. For the compound `Clc1cccc(Cl)c1NC1=NCCN1` [Clonidine hydrochloride], the “% Pdx1+ Ins1+” value came to 0.765. The value for `N=C(N)NCCCCNC(=N)N` [Arcaine sulfate] was 0.962; that for `Nc1nc2c(ncn2COC(CO)CO)c(=O)[nH]1` [Ganciclovir] was 0.946. For `CC=CC(=O)N(CC)c1ccccc1C` [Crotamiton], the “% Pdx1+ Ins1+” value was determined as 0.979. The value for `CNCCc1ccccn1` [Betahistine mesylate] was 0.908; that for `NCCCCCC(=O)O` [Aminocaproic acid] was 0.967; that for `CN(C)C(=N)NC(=N)N` [Metformin hydrochloride] was 1.15. Regarding `CCN(CC)C(=O)c1ccc(O)c(OC)c1` [Ethamivan], the “% Pdx1+ Ins1+” value came out at 1.01. As for `C[C@H]1[C@H](C)CC[C@]2(C(=O)O)CC[C@]3(C)C(=CC[C@@H]4[C@@]5(C)CC[C@H](O)C(C)(C)[C@@H]5CC[C@]43C)[C@H]12` [Ursolic acid], the “% Pdx1+ Ins1+” value turned out to be 1.02. Turning to `O=C(c1ccc(F)cc1)C1CCN(CCn2c(=O)[nH]c3ccccc3c2=O)CC1` [Ketanserin tartrate hydrate], the “% Pdx1+ Ins1+” value came out at 1.17. Regarding `Cc1cc2nc3c(=O)[nH]c(=O)nc-3n(C[C@H](O)[C@H](O)[C@H](O)CO)c2cc1C` [Riboflavine], the “% Pdx1+ Ins1+” value was 1.07. With `O=C1NCC2(CCN(CCc3ccccc3)CC2)O1` [Fenspiride hydrochloride], the “% Pdx1+ Ins1+” value was 0.909. As for `CN(C)CCOC(c1ccccc1)c1ccccc1.Cn1c(=O)c2[nH]c(Cl)nc2n(C)c1=O` [Dimenhydrinate], the “% Pdx1+ Ins1+” value was found to be 1.1.

As for `Nc1ncnc2c1ncn2[C@@H]1O[C@H](CO)[C@@H](O)[C@@H]1O` [Vidarabine], the “% Pdx1+ Ins1+” value is 0.827. Take `CCC1(c2ccccc2)C(=O)NCNC1=O` [Primidone]: the “% Pdx1+ Ins1+” value was 0.924. The figure for `CN(C)CCC(c1ccc(Br)cc1)c1ccccn1` (configuration not stated) [Brompheniramine maleate] is 0.988; for `NC(Cn1ccc(=O)c(O)c1)C(=O)O` (configuration not stated) [Mimosine] it is 0.998. Regarding `CN(CCCCCCCCCCN(C)C(=O)Oc1cccc([N+](C)(C)C)c1)C(=O)Oc1cccc([N+](C)(C)C)c1` [Demecarium bromide], the “% Pdx1+ Ins1+” value was 0.987. The value for `CC(=O)N(CC(O)CO)c1c(I)c(C(=O)NCC(O)CO)c(I)c(C(=O)NCC(O)CO)c1I` (configuration not stated) [Iohexol] was 0.969; that for `COC(=O)Nc1nc2cc(Sc3ccccc3)ccc2[nH]1` [Fenbendazole] was 1.05. Take `CN1CCN(CC(=O)N2c3ccccc3C(=O)Nc3cccnc32)CC1` [Pirenzepine dihydrochloride]: the “% Pdx1+ Ins1+” value stood at 1.05. For the compound `CCOC1O[C@H]([C@@H](COCc2ccccc2)OCc2ccccc2)[C@H](OCc2ccccc2)[C@H]1O` (some centres not stated) [Tribenoside], the “% Pdx1+ Ins1+” value is 0.982.

For `CC(=O)c1cc2ccccc2oc1=O` [3-Acetylcoumarin], the “% Pdx1+ Ins1+” value was 1. In the case of `CC(=O)Nc1c(I)c(C(=O)N[C@H]2C(O)O[C@H](CO)[C@@H](O)[C@@H]2O)c(I)c(N(C)C(C)=O)c1I` (some centres not stated) [Metrizamide], the “% Pdx1+ Ins1+” value was found to be 0.943. As for `CCN(CC)CCNC(=O)c1ccc(N)cc1` [Procainamide hydrochloride], the “% Pdx1+ Ins1+” value was determined as 0.959.

For the compound `CN[C@H]1CC[C@@H](c2ccc(Cl)c(Cl)c2)c2ccccc21` [Sertraline], the “% Pdx1+ Ins1+” value stood at 0.875. Turning to `C[C@@H]1CCC[C@H](C)N1NC(=O)c1ccc(Cl)c(S(N)(=O)=O)c1` [Clopamide], the “% Pdx1+ Ins1+” value amounted to 1.12. In the case of `CC(C)[N+]1(C)[C@@H]2CC[C@H]1C[C@@H](OC(=O)C(CO)c1ccccc1)C2` (some centres not stated) [Ipratropium bromide], the “% Pdx1+ Ins1+” value amounted to 0.984. For the compound `CC(CNC1CCCCC1)OC(=O)c1ccccc1` (configuration not stated) [Hexylcaine hydrochloride], the “% Pdx1+ Ins1+” value was 0.887. Consider `Nc1ccc(S(=O)(=O)Nc2nccs2)cc1` [Sulfathiazole], for which the “% Pdx1+ Ins1+” value came out at 1.12. `CO/N=C(\C(=O)N[C@@H]1C(=O)N2C(C(=O)O)=C(COC(C)=O)CS[C@H]12)c1csc(N)n1` [Cefotaxime sodium salt]: the “% Pdx1+ Ins1+” value turned out to be 0.992.

`O=C(O)[C@@H]1[C@H]2C[C@H]3c4[nH]c5ccccc5c4CCN3C[C@@H]2CC[C@@H]1O` [Yohimbinic acid monohydrate]: the “% Pdx1+ Ins1+” value came out at 0.934. On to `COc1cc(CNC(=O)CCCC/C=C/C(C)C)ccc1O` [Capsaicin], for which the “% Pdx1+ Ins1+” value was determined as 0.855. For the compound `CCCCOc1cc(C(=O)OCCN(CC)CC)ccc1N` [Benoxinate hydrochloride], the “% Pdx1+ Ins1+” value was found to be 0.973. Regarding `Cc1cc2cc3c(C)cc(=O)oc3c(C)c2o1` [Trioxsalen], the “% Pdx1+ Ins1+” value is 1.01. The figure for `CC(=O)Nc1nnc(S(N)(=O)=O)s1` [Acetazolamide] is 1.1; for `CCCOc1ccccc1-c1nc2[nH]nnc2c(=O)[nH]1` [Zaprinast] it is 0.901; for `CC#C[C@]1(O)CC[C@H]2[C@@H]3CCC4=CC(=O)CCC4=C3[C@@H](c3ccc(N(C)C)cc3)C[C@@]21C` [Mifepristone] it is 0.843. As for `COc1ccc(Cl)cc1C(=O)NCCc1ccc(S(=O)(=O)NC(=O)NC2CCCCC2)cc1` [Glibenclamide], the “% Pdx1+ Ins1+” value came out at 1.08. As for `C[C@@H]1C/C=C/C=C/C=C/C=C/[C@H](O[C@@H]2O[C@H](C)[C@@H](O)[C@H](N)[C@@H]2O)C[C@@H]2O[C@](O)(C[C@@H](O)C[C@H]3O[C@@H]3/C=C/C(=O)O1)C[C@H](O)[C@H]2C(=O)O` [Natamycin], the “% Pdx1+ Ins1+” value was 0.887. For `CC(C(O)c1ccc(O)cc1)N1CCC(Cc2ccccc2)CC1` (configuration not stated) [Ifenprodil tartrate], the “% Pdx1+ Ins1+” value worked out at 1.07.

On to `CN(C(=O)CN(CCO)CC(=O)N(C)C(C)(C)Cc1ccccc1)C(C)(C)Cc1ccccc1` [Oxethazaine], for which the “% Pdx1+ Ins1+” value turned out to be 1.08.

Regarding `Cc1cc(C)nc(NS(=O)(=O)c2ccc(N)cc2)n1` [Sulfamethazine sodium salt], the “% Pdx1+ Ins1+” value was 0.983.

Turning to `COc1cc(NS(=O)(=O)c2ccc(N)cc2)ncn1` [Sulfamonomethoxine], the “% Pdx1+ Ins1+” value turned out to be 0.999. As for `NC[C@H]1O[C@H](O[C@H]2[C@H](O)[C@@H](O[C@H]3O[C@H](CO)[C@@H](O)[C@H](N)[C@H]3O)[C@H](N)C[C@@H]2N)[C@H](N)C[C@@H]1O` [Tobramycin], the “% Pdx1+ Ins1+” value is 0.951. The value for `C=CCOc1ccccc1OCC(O)CNC(C)C` (configuration not stated) [Oxprenolol hydrochloride] was 0.901; that for `Cc1c(N)c(=O)n(-c2ccccc2)n1C` [Ampyrone] was 1.03. As to `CCN(CC)CCOCCOC(=O)C1(c2ccccc2)CCCC1` [Carbetapentane citrate], the “% Pdx1+ Ins1+” value stood at 0.89. In the case of `Cc1cc(C(C)(C)C)cc(C)c1CC1=NCCN1` [Xylometazoline hydrochloride], the “% Pdx1+ Ins1+” value stood at 0.846. As to `CCN(CCCCOC(=O)c1ccc(OC)c(OC)c1)C(C)Cc1ccc(OC)cc1` (configuration not stated) [Mebeverine hydrochloride], the “% Pdx1+ Ins1+” value was 1.02. The figure for `CC(C)(CO)[C@@H](O)C(=O)NCCC(=O)O` [Pantothenic acid calcium salt monohydrate] is 1.05.

As for `COc1cc2nc(N3CCN(C(=O)C4COc5ccccc5O4)CC3)nc(N)c2cc1OC` (configuration not stated) [Doxazosin mesylate], the “% Pdx1+ Ins1+” value stood at 0.895. Turning to `O=c1c(O)c(-c2ccc(O)cc2)oc2cc(O)cc(O)c12` [Kaempferol], the “% Pdx1+ Ins1+” value was 0.809. Consider `CCCCC1C(=O)N(c2ccccc2)N(c2ccc(O)cc2)C1=O` (configuration not stated) [Oxyphenbutazone], for which the “% Pdx1+ Ins1+” value came to 0.923. As for `N[C@H]1CONC1=O` [(S)-(-)-Cycloserine], the “% Pdx1+ Ins1+” value stood at 0.911. As to `CC1=CC(=O)c2ccccc2C1=O` [Menadione], the “% Pdx1+ Ins1+” value was 0.4.

Turning to `CC(=O)/N=c1/sc(S(N)(=O)=O)nn1C` [Methazolamide], the “% Pdx1+ Ins1+” value was determined as 0.998. As for `N=C(N)N1CCc2ccccc2C1` [Debrisoquin sulfate], the “% Pdx1+ Ins1+” value was 1.03.

As to `CCCCOC(=O)c1ccc(O)cc1` [Butylparaben], the “% Pdx1+ Ins1+” value worked out at 0.859. Regarding `O=C(O)Cc1cc(I)c(Oc2ccc(O)c(I)c2)c(I)c1` [Tiratricol, 3,3',5-triiodothyroacetic acid], the “% Pdx1+ Ins1+” value came out at 1.19. Turning to `O=C(CCCCC(=O)Nc1c(I)cc(I)c(C(=O)O)c1I)Nc1c(I)cc(I)c(C(=O)O)c1I` [Iodipamide], the “% Pdx1+ Ins1+” value was determined as 0.916. As for `C[C@@H]1O[C@@H](O[C@H]2[C@H](Oc3cc(O)c4c(c3)O[C@H](c3ccc(O)cc3)CC4=O)O[C@H](CO)[C@@H](O)[C@@H]2O)[C@H](O)[C@H](O)[C@H]1O` [Naringin hydrate], the “% Pdx1+ Ins1+” value stood at 0.979. `N=C(N=C(N)N)N1CCOCC1` [Moroxidine hydrochloride]: the “% Pdx1+ Ins1+” value was found to be 1.09. For the compound `CC(=O)Nc1ccc(OCC(O)CNC(C)C)cc1` (configuration not stated) [Practolol], the “% Pdx1+ Ins1+” value amounted to 0.935. The figure for `CCCC(=O)Nc1ccc(OCC(O)CNC(C)C)c(C(C)=O)c1` (configuration not stated) [Acebutolol hydrochloride] is 1.05. As for `O=C(Nc1ccccc1)OCC(CN1CCCCC1)OC(=O)Nc1ccccc1` (configuration not stated) [Diperodon hydrochloride], the “% Pdx1+ Ins1+” value is 0.993. For the compound `Nc1nc(=O)[nH]cc1F` [Flucytosine], the “% Pdx1+ Ins1+” value was 1.02.

In the case of `CC(=O)O[C@]1(C(C)=O)CC[C@H]2[C@@H]3C=C(C)C4=CC(=O)CC[C@]4(C)[C@H]3CC[C@@]21C` [Megestrol acetate], the “% Pdx1+ Ins1+” value was 0.95.

As to `Cc1cccc(C)c1NC(=O)CN1CCN(CCCC(c2ccc(F)cc2)c2ccc(F)cc2)CC1` [Lidoflazine], the “% Pdx1+ Ins1+” value was determined as 0.892.
